Test results published in publication PMC524034.
The exact form of at least one protein or probe is not confirmed. At least one result comes from cells or an extract, where the contact may be indirect.

By UniProt entry, the sequences of proteins in these tests, tags left out. Where a name states a change or a piece, a line headed by the entry shows the natural chain unless it says otherwise.
UniProt P10242: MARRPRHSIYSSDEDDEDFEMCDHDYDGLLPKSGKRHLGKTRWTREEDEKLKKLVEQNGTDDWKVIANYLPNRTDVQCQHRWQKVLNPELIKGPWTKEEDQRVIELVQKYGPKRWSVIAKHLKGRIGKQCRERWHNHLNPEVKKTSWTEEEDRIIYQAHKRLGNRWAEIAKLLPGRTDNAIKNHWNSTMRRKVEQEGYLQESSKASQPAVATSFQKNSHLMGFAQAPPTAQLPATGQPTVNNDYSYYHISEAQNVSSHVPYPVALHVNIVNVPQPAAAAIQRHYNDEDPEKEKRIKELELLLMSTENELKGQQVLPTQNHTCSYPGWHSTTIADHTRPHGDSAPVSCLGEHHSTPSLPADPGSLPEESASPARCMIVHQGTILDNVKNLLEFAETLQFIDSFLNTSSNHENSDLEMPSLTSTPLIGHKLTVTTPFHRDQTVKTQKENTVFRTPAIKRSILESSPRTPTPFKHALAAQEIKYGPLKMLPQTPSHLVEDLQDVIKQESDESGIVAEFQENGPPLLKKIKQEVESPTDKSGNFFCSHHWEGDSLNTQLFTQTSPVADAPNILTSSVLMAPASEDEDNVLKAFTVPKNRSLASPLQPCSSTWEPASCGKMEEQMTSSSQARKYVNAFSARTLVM

Molecular target: c-Myb (K-562 nuclear extract) (human) (UniProt P10242)
Assay: competition with a labelled probe
Conditions: vs GS945 probe, significant reduction especially at >=100-fold excess; 1 mM Tris pH 7.5, 7.5 mM NaCl, 1 mM EDTA, 0.7% glycerol, 0.1 mM DTT, 2 ug poly(dI-dC), 20 ul, 5 ug nuclear extract, 2.4 ng probe (Fig 2: 3.5 ug, 1 ng); protein in an extract

“TACAGGCATAACGGTTCCGTAGTGA (double strand) [c-Myb consensus competitor]”: binds.
